Data as given in US20200299396A1.
These are yes or no findings as the source states them, for the method shown. Some binding calls cover weakened binding; strength is not graded here.

Protein sequences, listed by entry. Tags and fused reporters are not part of them. Lines headed by an entry give the natural chain unless they say otherwise; changes in a name come on top.
UniProt P19438: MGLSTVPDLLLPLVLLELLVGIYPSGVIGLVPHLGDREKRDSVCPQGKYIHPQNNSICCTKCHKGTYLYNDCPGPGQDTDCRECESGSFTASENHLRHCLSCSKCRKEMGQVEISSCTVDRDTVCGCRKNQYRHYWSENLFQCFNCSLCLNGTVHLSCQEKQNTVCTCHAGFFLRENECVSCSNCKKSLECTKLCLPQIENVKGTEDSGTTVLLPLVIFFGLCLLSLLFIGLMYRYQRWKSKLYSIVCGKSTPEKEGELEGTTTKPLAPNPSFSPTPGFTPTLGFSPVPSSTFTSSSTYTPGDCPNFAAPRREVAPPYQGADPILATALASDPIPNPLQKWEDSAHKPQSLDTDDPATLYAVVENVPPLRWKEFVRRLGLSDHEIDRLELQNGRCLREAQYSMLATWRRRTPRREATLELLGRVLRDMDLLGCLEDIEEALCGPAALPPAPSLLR

Legend:
[1] = biological target: Recombinant human TNFR1-Fc fusion protein (human) (UniProt P19438); experiment: ELISA on coated human TNFR1-Fc, n=3
[2] = biological target: Recombinant human TNFR1-Fc fusion protein (human) (UniProt P19438); experiment: ELISA under equilibrium conditions, TNFR1-Fc coated; control

binding [1]: binds | binding [2]: binds
B1: Fab 13.7 (Fab, V domains shown)
VH: HVQLVQSGAEVKKPGSSVKVSCKASGYTFTDFYINWVRQAPGQGLEWIGEIVPSQGEAKYNDKFKARVTITADKSTSTAYMELSSLRSEDTAVYYCARWDFLDYWGQGTTVTVSS
VL: DVQMTQSPSSLSASVGDRVTITCRSSQSLLHSNGNTYLHWYQQKPGKAPKLLIYTVSNRFSGVPSRFSGSGSGTDFTLTISSLQPEDFATYYCSQSTHVPYTFGGGTKVEIKR
